Assay results: PubChem BioAssay AID248 (DTP/NCI, 2004)
The list shows only some results of the screen, not a fair sample: it gathers tests that were run many times, whatever their T/C, doses with no T/C, and many T/C values between a quarter and a half above the control. Further doses and runs are listed elsewhere. T/C: endpoint of the treated group in % of that of the vehicle group. Some entries give survivors of the animals treated and no T/C: the source files T/C as zero there, which appears to mark a toxic dose or a test without result, not a measured value. Some survivor counts are full or nearly so, which does not show that the dose was tolerated: survival well below the control is almost never listed, so the zero probably covers shortened survival too. Survivors were counted at the toxicity check, usually on the fifth day, unless a day is given; later deaths do not show. Schedules are NCI's codes, taken here to give the interval after Q, in days (D) or hours (H), and the number of doses after X. Some schedule codes hold Z or #, which are not explained here. For survival time, this PubChem deposit counts one and a half times the control or more as active, and values a quarter to a half above the control carry no call in these data; other NCI protocols may use other cut-offs. Some T/C values carry the count of animals alive at the toxicity check (mostly the fifth day); without a count, all were alive then.

System: L1210 leukemia ip in BDF1 mice, survival T/C
Assay: NCI In Vivo Anticancer Drug Screen. Data for tumor model L1210 Leukemia (intraperitoneal) in B6D2F1 (BDF1) mice
Settings: higher T/C = longer survival
[1] = T/C endpoint: mean survival time, dose: 400.0 mg/kg/injection, schedule: Q04DX003 (ip), vehicle: saline with Tween-80

Q: What does the source list for CCC(C)C(C=NCC(CCN(C)C)(c1ccc2ccccc2c1)C(C)CC)(CCN(C)C)c1ccc2ccccc2c1 (stereo unspecified)?
A: survivor count (T/C endpoint: mean survival time, dose: 6.25 mg/kg/injection, schedule: Q04DX002 (ip), vehicle: saline with Tween-80): 3 of 3; survivor count (T/C endpoint: mean survival time, dose: 25.0 mg/kg/injection, schedule: Q04DX002 (ip), vehicle: saline with Tween-80): 3 of 3; survivor count (T/C endpoint: mean survival time, dose: 50.0 mg/kg/injection, schedule: Q04DX002 (ip), vehicle: saline + alcohol): 3 of 3; survivor count (T/C endpoint: mean survival time, dose: 100.0 mg/kg/injection, schedule: Q04DX002 (ip), vehicle: saline + alcohol): 0 of 3; survivor count (T/C endpoint: mean survival time, dose: 200.0 mg/kg/injection, schedule: Q04DX002 (ip), vehicle: saline + alcohol): 1 of 3; survivor count (T/C endpoint: mean survival time, dose: 400.0 mg/kg/injection, schedule: Q04DX002 (ip), vehicle: saline + alcohol): 2 of 3

Q: C1c2nnnn2Cc2nnnn21 was tested. Which survivor count (T/C endpoint: mean survival time, dose: 100.0 mg/kg/injection, schedule: Q04DX002 (ip), vehicle: saline) did it give?
A: 0 of 3

Q: What about the survivor count (T/C endpoint: mean survival time, dose: 200.0 mg/kg/injection, schedule: Q04DX002 (ip), vehicle: saline) of the same molecule?
A: 0 of 3

Q: And the survivor count (T/C endpoint: mean survival time, dose: 400.0 mg/kg/injection, schedule: Q04DX002 (ip), vehicle: saline)?
A: 0 of 3

Q: With CNC(=O)NC(C)=C(C#N)C#N as the molecule, how does the survivor count (T/C endpoint: mean survival time, dose: 300.0 mg/kg/injection, schedule: Q01DX001 (ip), vehicle: saline) read?
A: 0 of 6

Q: What does the source list for CCCCN(C)N=Nc1ccc(CCC(=O)OCC)cc1?
A: T/C (T/C endpoint: mean survival time, dose: 145.0 mg/kg/injection, schedule: Q01DX009 (ip), vehicle: saline with Tween-80): 138 % of control; T/C (T/C endpoint: mean survival time, dose: 177.0 mg/kg/injection, schedule: Q01DX007 (ip), vehicle: saline): 144 % of control; T/C (T/C endpoint: mean survival time, dose: 266.0 mg/kg/injection, schedule: Q01DX009 (ip), vehicle: other): 128 % of control; T/C (T/C endpoint: mean survival time, dose: 375.0 mg/kg/injection, schedule: Q01DX Z (ip), vehicle: saline): 137 % of control; survivor count (T/C endpoint: mean survival time, dose: 600.0 mg/kg/injection, schedule: Q01DX007 (ip), vehicle: saline): 1 of 6; T/C (T/C endpoint: mean survival time, dose: 829.0 mg/kg/injection, schedule: Q01DX001 (ip), vehicle: saline with Tween-80): 135 % of control [9 of 10 alive]; T/C (T/C endpoint: median survival time, dose: 100.0 mg/kg/injection, schedule: Q01DX009 (ip), vehicle: saline): 130 % of control; T/C (T/C endpoint: median survival time, dose: 200.0 mg/kg/injection, schedule: Q01DX009 (ip), vehicle: saline): 133 % of control; T/C (T/C endpoint: median survival time, dose: 400.0 mg/kg/injection, schedule: Q01DX009 (ip), vehicle: saline): 148 % of control; T/C (T/C endpoint: median survival time, dose: 400.0 mg/kg/injection, schedule: Q04DX003 (ip), vehicle: Klucel (hydroxypropylcellulose) (HPC)): 133 % of control; survivor count (T/C endpoint: median survival time, dose: 800.0 mg/kg/injection, schedule: Q04DX003 (ip), vehicle: Klucel (hydroxypropylcellulose) (HPC)): 5 of 8; survivor count (T/C endpoint: median survival time, dose: 1600.0 mg/kg/injection, schedule: Q04DX003 (ip), vehicle: Klucel (hydroxypropylcellulose) (HPC)): 2 of 8

Q: Which survivor count (T/C endpoint: mean survival time, dose: 25.0 mg/kg/injection, schedule: Q01DX001 (ip), vehicle: carboxymethylcellulose (CMC)) does the source give for CC(=O)[O][Hg][c]1cc2c(cc1N)C(=O)c1ccccc1-2 here?
A: 0 of 6

Q: What about the survivor count (T/C endpoint: mean survival time, dose: 50.0 mg/kg/injection, schedule: Q01DX001 (ip), vehicle: carboxymethylcellulose (CMC)) of the same molecule?
A: 0 of 6

Q: And the survivor count (T/C endpoint: mean survival time, dose: 100.0 mg/kg/injection, schedule: Q01DX001 (ip), vehicle: carboxymethylcellulose (CMC))?
A: 0 of 4

Q: What about the survivor count (T/C endpoint: mean survival time, dose: 200.0 mg/kg/injection, schedule: Q01DX001 (ip), vehicle: carboxymethylcellulose (CMC)) of the same molecule?
A: 0 of 4

Q: And the survivor count (T/C endpoint: mean survival time, dose: 400.0 mg/kg/injection, schedule: Q01DX001 (ip), vehicle: carboxymethylcellulose (CMC))?
A: 0 of 4

Q: How did the survivor count [1] turn out when C/C(=N\N=C(/C)c1ccc2ccccc2c1)c1ccc2ccccc2c1 was run?
A: 3 of 3

Q: For C[P+](C)(c1ccccc1)c1ccccc1, which survivor count (T/C endpoint: mean survival time, dose: 25.0 mg/kg/injection, schedule: Q04DX003 (ip), vehicle: saline with Tween-80) is on record?
A: 0 of 6

Q: What about the survivor count (T/C endpoint: mean survival time, dose: 50.0 mg/kg/injection, schedule: Q04DX003 (ip), vehicle: saline with Tween-80) of the same molecule?
A: 0 of 6

Q: What about the survivor count (T/C endpoint: mean survival time, dose: 100.0 mg/kg/injection, schedule: Q04DX003 (ip), vehicle: saline with Tween-80) of the same molecule?
A: 0 of 6

Q: What about the survivor count (T/C endpoint: mean survival time, dose: 200.0 mg/kg/injection, schedule: Q04DX003 (ip), vehicle: saline with Tween-80) of the same molecule?
A: 0 of 6

Q: And the survivor count [1]?
A: 0 of 6

Q: What does the source list for CC(=O)C(O)N1C(=O)C=CC1=O (stereo unspecified)?
A: survivor count (T/C endpoint: mean survival time, dose: 10.0 mg/kg/injection, schedule: Q01DX009 (ip), vehicle: saline): 2 of 6; survivor count (T/C endpoint: mean survival time, dose: 10.0 mg/kg/injection, schedule: Q04DX003 (ip), vehicle: water): 3 of 6; survivor count (T/C endpoint: mean survival time, dose: 20.0 mg/kg/injection, schedule: Q## X006 (ip), vehicle: water): 2 of 6
